Results on six molecules are retold here after article PMC7039881.

The chains behind the UniProt entries cited, without tags or fusion partners. Where a name states a change or a piece, a line headed by the entry shows the natural chain unless it says otherwise.
UniProt Q96G97: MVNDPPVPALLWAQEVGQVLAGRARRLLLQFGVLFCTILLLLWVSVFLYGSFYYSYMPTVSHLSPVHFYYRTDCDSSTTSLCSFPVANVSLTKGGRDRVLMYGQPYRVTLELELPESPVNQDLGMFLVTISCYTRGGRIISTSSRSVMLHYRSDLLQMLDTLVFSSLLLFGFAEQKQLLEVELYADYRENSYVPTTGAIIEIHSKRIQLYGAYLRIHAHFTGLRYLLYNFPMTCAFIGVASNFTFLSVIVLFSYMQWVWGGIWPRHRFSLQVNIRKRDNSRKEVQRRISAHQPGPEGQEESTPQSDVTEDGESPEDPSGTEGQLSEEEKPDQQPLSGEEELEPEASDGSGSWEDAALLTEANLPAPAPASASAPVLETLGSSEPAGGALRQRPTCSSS

The target in assay [1] is T1, FLAG-GPAT3 (human) (UniProt Q53EU6).
T1 sequence: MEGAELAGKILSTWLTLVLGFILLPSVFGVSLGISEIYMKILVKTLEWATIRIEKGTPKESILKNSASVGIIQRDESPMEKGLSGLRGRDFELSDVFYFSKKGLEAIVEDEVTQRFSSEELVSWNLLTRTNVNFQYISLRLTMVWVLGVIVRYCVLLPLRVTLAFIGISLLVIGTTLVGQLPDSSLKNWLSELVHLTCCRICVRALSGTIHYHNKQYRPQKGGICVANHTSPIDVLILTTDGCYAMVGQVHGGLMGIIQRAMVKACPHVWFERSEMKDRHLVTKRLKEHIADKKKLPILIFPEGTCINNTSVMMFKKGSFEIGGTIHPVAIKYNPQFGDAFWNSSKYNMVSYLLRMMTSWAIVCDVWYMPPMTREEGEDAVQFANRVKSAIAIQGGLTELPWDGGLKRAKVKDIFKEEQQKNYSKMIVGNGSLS
As to the kind of experiment: co-IP; HEK293 cells co-transfected, lysed 48 h later in ODG lysis buffer (50 mM n-octyl-β-D-glucopyranoside, 50 mM Tris pH 6.8, 150 mM NaCl, 1 mM EDTA); anti-FLAG-agarose beads 2 h at 4 °C, eluted with 3xFLAG peptide; immunoblot for FLAG and Myc. In general terms: A western blot detects proteins with antibodies after separation by electrophoresis.

The target in assay [2] is FLAG-tagged human seipin, long form (L) (human). The assay is described as above.
The target in assay [3] is N-terminal FLAG-tagged seipin T78A (human) (UniProt Q96G97). The description is as above.
In assay [4] the target is Yn-seipin (N-terminal fragment of YFP fused to the N terminus of seipin) (human) (UniProt Q96G97). As to the kind of experiment: split reporter; BiFC of seipin and GPAT3 half-YFP fusions in HEK293 cells; 37 °C 4 h, 32 °C 20 h, 30 °C 2 h; fixed cells, YFP fluorescence.
Assay [5] has as its target seipin-Yn (N-terminal fragment of YFP fused to the C terminus of seipin) (human) (UniProt Q96G97). Described as above.
The target is the same in assay [6]. As to the kind of experiment: split reporter; BiFC in 3T3-L1 preadipocytes co-transfected at the induction of differentiation, fixed at day 3; temperature shift to form YFP.

No constants are given. Whether binding was seen depends on the method and setting. Binding seen in cells or lysates may run through a third protein. For some assays here: Binding can be weak; no strength is given. Sequences can lack the tags named with a protein.

For “Myc-seipin lacking the C-terminus (ΔCT) (human) (domain or fragment)”, the binding result in assay [1] is given as “binds”.
Same read-out and setting: in the case of “Myc-seipin lacking the N-terminus (ΔNT) (human) (domain or fragment)” it was “binds”.

B1: Myc-tagged human GPAT4 (GPAT4-Myc) (enzyme, UniProt Q86UL3 38-456)
chain: VSFGIRKLYMKSLLKIFAWATLRMERGAKEKNHQLYKPYTNGIIAKDPTSLEEEIKEIRRSGSSKALDNTPEFELSDIFYFCRKGMETIMDDEVTKRFSAEELESWNLLSRTNYNFQYISLRLTVLWGLGVLIRYCFLLPLRIALAFTGISLLVVGTTVVGYLPNGRFKEFMSKHVHLMCYRICVRALTAIITYHDRENRPRNGGICVANHTSPIDVIILASDGYYAMVGQVHGGLMGVIQRAMVKACPHVWFERSEVKDRHLVAKRLTEHVQDKSKLPILIFPEGTCINNTSVMMFKKGSFEIGATVYPVAIKYDPQFGDAFWNSSKYGMVTYLLRMMTSWAIVCSVWYLPPMTREADEDAVQFANRVKSAIARQGGLVDLLWDGGLKREKVKDTFKEEQQKLYSKMIVGNHKDRSRS
Consider B1, for which the binding result in assay [2] is on record as “binds”.

B2: Myc-tagged human GPAT3 (GPAT3-Myc) (enzyme, UniProt Q53EU6 1-434)
chain: MEGAELAGKILSTWLTLVLGFILLPSVFGVSLGISEIYMKILVKTLEWATIRIEKGTPKESILKNSASVGIIQRDESPMEKGLSGLRGRDFELSDVFYFSKKGLEAIVEDEVTQRFSSEELVSWNLLTRTNVNFQYISLRLTMVWVLGVIVRYCVLLPLRVTLAFIGISLLVIGTTLVGQLPDSSLKNWLSELVHLTCCRICVRALSGTIHYHNKQYRPQKGGICVANHTSPIDVLILTTDGCYAMVGQVHGGLMGIIQRAMVKACPHVWFERSEMKDRHLVTKRLKEHIADKKKLPILIFPEGTCINNTSVMMFKKGSFEIGGTIHPVAIKYNPQFGDAFWNSSKYNMVSYLLRMMTSWAIVCDVWYMPPMTREEGEDAVQFANRVKSAIAIQGGLTELPWDGGLKRAKVKDIFKEEQQKNYSKMIVGNGSLS
Regarding B2, the binding entry in assay [2] and in assay [3] was “binds” throughout.

B3: GPAT3-Yc (C-terminal fragment of YFP fused to the C terminus of GPAT3-Myc) (enzyme, UniProt Q53EU6 1-434)
chain: MEGAELAGKILSTWLTLVLGFILLPSVFGVSLGISEIYMKILVKTLEWATIRIEKGTPKESILKNSASVGIIQRDESPMEKGLSGLRGRDFELSDVFYFSKKGLEAIVEDEVTQRFSSEELVSWNLLTRTNVNFQYISLRLTMVWVLGVIVRYCVLLPLRVTLAFIGISLLVIGTTLVGQLPDSSLKNWLSELVHLTCCRICVRALSGTIHYHNKQYRPQKGGICVANHTSPIDVLILTTDGCYAMVGQVHGGLMGIIQRAMVKACPHVWFERSEMKDRHLVTKRLKEHIADKKKLPILIFPEGTCINNTSVMMFKKGSFEIGGTIHPVAIKYNPQFGDAFWNSSKYNMVSYLLRMMTSWAIVCDVWYMPPMTREEGEDAVQFANRVKSAIAIQGGLTELPWDGGLKRAKVKDIFKEEQQKNYSKMIVGNGSLS
As for B3, the values for the binding entry in assay [4], in assay [5] and in assay [6] were “no binding”, “binds” and “binds”, respectively.

B4: Yc-GPAT3 (C-terminal fragment of YFP fused to the N terminus of GPAT3-Myc) (enzyme, UniProt Q53EU6 1-434)
chain: MEGAELAGKILSTWLTLVLGFILLPSVFGVSLGISEIYMKILVKTLEWATIRIEKGTPKESILKNSASVGIIQRDESPMEKGLSGLRGRDFELSDVFYFSKKGLEAIVEDEVTQRFSSEELVSWNLLTRTNVNFQYISLRLTMVWVLGVIVRYCVLLPLRVTLAFIGISLLVIGTTLVGQLPDSSLKNWLSELVHLTCCRICVRALSGTIHYHNKQYRPQKGGICVANHTSPIDVLILTTDGCYAMVGQVHGGLMGIIQRAMVKACPHVWFERSEMKDRHLVTKRLKEHIADKKKLPILIFPEGTCINNTSVMMFKKGSFEIGGTIHPVAIKYNPQFGDAFWNSSKYNMVSYLLRMMTSWAIVCDVWYMPPMTREEGEDAVQFANRVKSAIAIQGGLTELPWDGGLKRAKVKDIFKEEQQKNYSKMIVGNGSLS
For the molecule B4, the binding entry in assay [4], in assay [5] and in assay [6] was “no binding” throughout.
